Source: paper PMC5514116
No constants are given. Whether binding was seen depends on the method and setting. For some of these results: Binding seen in cells or lysates may run through a third protein. Some results given as binding are weak or reduced against the parent protein; the word gives no strength.

Amino acid sequences for entries named in this document (tags omitted). Residues count along the entry.
UniProt Q9WVJ9, residues 28-443: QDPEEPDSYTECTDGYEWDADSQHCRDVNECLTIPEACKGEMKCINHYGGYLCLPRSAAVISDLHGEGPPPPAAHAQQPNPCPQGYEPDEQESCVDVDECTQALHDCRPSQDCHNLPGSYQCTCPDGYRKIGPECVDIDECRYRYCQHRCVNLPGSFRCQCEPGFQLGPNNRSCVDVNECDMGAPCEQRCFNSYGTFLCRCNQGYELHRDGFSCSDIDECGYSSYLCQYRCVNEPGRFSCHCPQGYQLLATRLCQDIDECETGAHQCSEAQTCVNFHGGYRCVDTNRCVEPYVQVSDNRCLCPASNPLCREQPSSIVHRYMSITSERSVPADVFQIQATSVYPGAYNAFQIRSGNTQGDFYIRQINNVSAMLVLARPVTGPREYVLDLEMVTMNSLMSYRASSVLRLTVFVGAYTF
UniProt Q99K41, residues 22-1017: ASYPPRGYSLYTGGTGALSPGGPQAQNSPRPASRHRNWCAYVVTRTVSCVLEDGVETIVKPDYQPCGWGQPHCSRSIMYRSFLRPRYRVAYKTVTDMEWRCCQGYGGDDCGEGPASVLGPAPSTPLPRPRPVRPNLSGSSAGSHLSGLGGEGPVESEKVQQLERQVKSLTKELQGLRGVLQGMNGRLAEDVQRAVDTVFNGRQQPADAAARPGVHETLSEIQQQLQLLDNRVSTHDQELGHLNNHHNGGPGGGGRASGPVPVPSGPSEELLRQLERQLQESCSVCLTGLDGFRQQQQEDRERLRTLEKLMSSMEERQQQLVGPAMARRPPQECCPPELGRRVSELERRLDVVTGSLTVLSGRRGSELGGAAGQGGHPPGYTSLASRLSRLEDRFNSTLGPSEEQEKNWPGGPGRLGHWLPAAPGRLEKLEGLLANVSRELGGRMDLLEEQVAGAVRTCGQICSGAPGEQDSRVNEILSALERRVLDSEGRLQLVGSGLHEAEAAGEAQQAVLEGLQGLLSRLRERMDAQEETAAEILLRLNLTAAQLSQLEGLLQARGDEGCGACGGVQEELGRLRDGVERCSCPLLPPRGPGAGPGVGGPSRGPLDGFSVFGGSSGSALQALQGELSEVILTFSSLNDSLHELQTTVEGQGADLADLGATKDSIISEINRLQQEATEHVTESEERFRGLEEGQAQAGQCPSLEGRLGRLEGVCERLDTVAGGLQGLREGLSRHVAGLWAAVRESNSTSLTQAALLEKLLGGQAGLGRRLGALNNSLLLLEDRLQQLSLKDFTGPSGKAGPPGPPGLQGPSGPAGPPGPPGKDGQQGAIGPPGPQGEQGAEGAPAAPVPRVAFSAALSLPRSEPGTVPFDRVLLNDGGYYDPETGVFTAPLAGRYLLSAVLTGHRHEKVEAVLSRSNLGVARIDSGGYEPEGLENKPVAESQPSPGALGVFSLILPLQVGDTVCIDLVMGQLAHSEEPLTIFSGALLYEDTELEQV
UniProt Q9Y6C2, residues 22-1016: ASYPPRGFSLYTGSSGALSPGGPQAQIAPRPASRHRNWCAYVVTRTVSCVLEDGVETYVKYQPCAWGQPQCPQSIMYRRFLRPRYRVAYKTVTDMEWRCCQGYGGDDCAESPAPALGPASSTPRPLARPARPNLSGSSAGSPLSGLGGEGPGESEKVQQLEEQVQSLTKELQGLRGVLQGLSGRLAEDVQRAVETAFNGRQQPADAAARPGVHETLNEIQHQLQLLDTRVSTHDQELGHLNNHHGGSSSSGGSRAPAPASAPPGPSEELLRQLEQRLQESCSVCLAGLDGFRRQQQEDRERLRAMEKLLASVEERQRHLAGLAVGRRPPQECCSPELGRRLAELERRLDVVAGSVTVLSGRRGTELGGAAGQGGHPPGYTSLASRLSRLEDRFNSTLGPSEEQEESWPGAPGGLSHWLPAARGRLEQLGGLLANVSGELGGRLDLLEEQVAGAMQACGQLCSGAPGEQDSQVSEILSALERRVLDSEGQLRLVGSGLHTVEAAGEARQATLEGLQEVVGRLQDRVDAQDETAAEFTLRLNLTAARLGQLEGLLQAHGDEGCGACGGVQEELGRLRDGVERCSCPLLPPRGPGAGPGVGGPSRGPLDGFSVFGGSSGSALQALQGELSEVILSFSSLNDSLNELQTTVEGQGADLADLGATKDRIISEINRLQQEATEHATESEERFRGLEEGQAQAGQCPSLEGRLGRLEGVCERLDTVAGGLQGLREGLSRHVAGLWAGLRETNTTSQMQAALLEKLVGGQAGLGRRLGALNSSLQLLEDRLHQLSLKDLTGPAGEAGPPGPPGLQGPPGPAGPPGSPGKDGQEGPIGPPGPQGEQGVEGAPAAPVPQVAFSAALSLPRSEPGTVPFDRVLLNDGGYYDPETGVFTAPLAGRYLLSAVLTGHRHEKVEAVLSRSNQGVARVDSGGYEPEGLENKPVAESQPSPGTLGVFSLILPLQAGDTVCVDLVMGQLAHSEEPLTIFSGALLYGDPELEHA
UniProt Q8K482, residues 34-1074: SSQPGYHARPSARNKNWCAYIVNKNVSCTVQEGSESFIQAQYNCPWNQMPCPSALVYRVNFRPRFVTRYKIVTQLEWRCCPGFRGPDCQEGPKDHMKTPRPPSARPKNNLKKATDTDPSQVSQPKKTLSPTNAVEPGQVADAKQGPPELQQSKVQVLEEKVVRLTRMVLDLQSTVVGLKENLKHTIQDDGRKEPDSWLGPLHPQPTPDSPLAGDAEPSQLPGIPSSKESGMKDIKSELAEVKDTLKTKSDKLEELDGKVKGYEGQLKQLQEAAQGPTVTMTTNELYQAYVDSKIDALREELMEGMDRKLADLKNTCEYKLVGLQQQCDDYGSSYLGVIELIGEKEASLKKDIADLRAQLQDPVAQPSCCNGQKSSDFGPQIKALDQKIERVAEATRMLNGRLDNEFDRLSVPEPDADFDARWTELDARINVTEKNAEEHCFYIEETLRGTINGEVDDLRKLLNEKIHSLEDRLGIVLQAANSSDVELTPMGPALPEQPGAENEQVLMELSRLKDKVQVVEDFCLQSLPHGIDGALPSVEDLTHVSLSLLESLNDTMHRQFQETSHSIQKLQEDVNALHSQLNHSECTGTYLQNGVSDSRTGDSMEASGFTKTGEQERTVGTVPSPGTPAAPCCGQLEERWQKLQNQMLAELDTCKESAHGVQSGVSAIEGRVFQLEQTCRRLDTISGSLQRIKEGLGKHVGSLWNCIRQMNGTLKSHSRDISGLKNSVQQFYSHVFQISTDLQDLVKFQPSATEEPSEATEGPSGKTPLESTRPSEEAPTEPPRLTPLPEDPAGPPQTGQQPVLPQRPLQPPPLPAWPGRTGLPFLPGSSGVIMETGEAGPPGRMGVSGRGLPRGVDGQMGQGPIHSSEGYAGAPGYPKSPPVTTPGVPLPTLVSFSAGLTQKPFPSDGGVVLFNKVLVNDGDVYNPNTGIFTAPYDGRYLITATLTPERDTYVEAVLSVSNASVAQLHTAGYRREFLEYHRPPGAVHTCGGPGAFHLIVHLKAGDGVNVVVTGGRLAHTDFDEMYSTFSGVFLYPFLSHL

What was measured:
[1] = target: recombinant murine C-terminally 2xStrepII tagged full length fibulin-4 (murine) (UniProt Q9WVJ9); assay: pull-down; recombinant 2xStrep-tagged fibulin-4 mixed with conditioned media of transfected EBNA cells, 2 hours at 4 °C, precipitated with Strep-Tactin Sepharose; washed with 50 mM Tris-HCl pH 7.5, 150 mM NaCl, 2 mM EDTA, 1% Triton X-100; western blot; only the target purified
[2] = target: FLAG-EMILIN-1 (murine EMILIN-1 with a FLAG tag at the N-terminus) (murine) (UniProt Q99K41); assay: co-IP; FLAG-EMILIN-1 conditioned medium immunoprecipitated with anti-FLAG M2 affinity gel (2 hours, 4 °C), washed, incubated overnight at 4 °C with MC3T3-E1 conditioned serum free medium; western blot with a fibulin-4 antibody
[3] = target: purified recombinant human EMILIN-1 (human) (UniProt Q9Y6C2); assay: ELISA; human EMILIN-1 coated (100 nM/well, PBS 1 M NaCl, 4 °C overnight); fibulin-4 serially diluted 1:2 in 2% milk, TBS, 2 h; detected with HRP-conjugated anti-Strep-tag antibody; both purified

Row | binding [1] | Substance | further results
1 | binds | FLAG-EMILIN-1 (murine EMILIN-1 with a FLAG tag at the N-terminus) (from UniProt Q99K41 22-1017) | –
2 | no binding | FLAG-EMILIN-2 (murine EMILIN-2 with a FLAG tag at the N-terminus) (from UniProt Q8K482 34-1074) | –
3 | – | endogenous fibulin-4 secreted in the medium of MC3T3-E1 cells (from UniProt Q9WVJ9 28-443) | binding [2]: binds
4 | – | recombinant murine C-terminally 2xStrepII tagged full length fibulin-4 (from UniProt Q9WVJ9 28-443) | binding [3]: binds
